Experimental data reported in PMC5133995.
Results are given in words; binding and its absence hold for the method and conditions named. Binding seen in cells or lysates may run through a third protein. Some results given as binding are weak or reduced against the parent protein; the word gives no strength.

By UniProt entry, the sequences of proteins in these tests, tags left out.
UniProt Q13164: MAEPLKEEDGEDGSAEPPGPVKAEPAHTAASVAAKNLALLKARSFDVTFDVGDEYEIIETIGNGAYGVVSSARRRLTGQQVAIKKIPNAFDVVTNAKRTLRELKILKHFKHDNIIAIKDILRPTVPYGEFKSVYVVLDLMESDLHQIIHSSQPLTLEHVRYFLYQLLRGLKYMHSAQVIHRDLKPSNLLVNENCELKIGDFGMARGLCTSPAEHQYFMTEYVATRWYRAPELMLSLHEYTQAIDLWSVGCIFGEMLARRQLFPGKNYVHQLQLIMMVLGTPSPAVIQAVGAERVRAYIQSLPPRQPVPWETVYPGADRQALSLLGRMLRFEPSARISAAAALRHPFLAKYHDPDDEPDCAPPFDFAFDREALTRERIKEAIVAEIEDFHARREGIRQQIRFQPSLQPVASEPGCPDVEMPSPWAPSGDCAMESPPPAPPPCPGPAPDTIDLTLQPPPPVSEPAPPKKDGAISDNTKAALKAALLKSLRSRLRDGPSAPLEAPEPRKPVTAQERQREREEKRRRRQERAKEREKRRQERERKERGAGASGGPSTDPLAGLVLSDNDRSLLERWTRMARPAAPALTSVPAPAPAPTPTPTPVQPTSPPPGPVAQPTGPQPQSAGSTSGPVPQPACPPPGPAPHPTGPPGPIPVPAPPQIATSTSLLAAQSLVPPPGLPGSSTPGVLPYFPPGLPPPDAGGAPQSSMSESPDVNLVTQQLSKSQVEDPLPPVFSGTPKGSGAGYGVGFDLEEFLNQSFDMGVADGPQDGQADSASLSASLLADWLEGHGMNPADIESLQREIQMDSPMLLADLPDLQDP

Biological target: cyclin-dependent kinase 5 (CDK5) (human (endogenous in HCT116)) (UniProt Q00535)
Assay: co-IP; endogenous proteins in non-transfected HCT116 cells; RIPA lysate, precleared with protein A+G agarose, immunoprecipitated with 2 ug anti-IgG, anti-CDK5 or anti-ERK5 and protein G-agarose overnight at 4 °C; washed three times with PBS; western blotting

With “ERK5 (from UniProt Q13164 1-816) (enzyme)” the binding was “binds”.
